# Library screen at single concentrations

Chains of the proteins cited; added tags and fusions are not shown. Residues count along the entry.
UniProt I6X8D2, whole entry: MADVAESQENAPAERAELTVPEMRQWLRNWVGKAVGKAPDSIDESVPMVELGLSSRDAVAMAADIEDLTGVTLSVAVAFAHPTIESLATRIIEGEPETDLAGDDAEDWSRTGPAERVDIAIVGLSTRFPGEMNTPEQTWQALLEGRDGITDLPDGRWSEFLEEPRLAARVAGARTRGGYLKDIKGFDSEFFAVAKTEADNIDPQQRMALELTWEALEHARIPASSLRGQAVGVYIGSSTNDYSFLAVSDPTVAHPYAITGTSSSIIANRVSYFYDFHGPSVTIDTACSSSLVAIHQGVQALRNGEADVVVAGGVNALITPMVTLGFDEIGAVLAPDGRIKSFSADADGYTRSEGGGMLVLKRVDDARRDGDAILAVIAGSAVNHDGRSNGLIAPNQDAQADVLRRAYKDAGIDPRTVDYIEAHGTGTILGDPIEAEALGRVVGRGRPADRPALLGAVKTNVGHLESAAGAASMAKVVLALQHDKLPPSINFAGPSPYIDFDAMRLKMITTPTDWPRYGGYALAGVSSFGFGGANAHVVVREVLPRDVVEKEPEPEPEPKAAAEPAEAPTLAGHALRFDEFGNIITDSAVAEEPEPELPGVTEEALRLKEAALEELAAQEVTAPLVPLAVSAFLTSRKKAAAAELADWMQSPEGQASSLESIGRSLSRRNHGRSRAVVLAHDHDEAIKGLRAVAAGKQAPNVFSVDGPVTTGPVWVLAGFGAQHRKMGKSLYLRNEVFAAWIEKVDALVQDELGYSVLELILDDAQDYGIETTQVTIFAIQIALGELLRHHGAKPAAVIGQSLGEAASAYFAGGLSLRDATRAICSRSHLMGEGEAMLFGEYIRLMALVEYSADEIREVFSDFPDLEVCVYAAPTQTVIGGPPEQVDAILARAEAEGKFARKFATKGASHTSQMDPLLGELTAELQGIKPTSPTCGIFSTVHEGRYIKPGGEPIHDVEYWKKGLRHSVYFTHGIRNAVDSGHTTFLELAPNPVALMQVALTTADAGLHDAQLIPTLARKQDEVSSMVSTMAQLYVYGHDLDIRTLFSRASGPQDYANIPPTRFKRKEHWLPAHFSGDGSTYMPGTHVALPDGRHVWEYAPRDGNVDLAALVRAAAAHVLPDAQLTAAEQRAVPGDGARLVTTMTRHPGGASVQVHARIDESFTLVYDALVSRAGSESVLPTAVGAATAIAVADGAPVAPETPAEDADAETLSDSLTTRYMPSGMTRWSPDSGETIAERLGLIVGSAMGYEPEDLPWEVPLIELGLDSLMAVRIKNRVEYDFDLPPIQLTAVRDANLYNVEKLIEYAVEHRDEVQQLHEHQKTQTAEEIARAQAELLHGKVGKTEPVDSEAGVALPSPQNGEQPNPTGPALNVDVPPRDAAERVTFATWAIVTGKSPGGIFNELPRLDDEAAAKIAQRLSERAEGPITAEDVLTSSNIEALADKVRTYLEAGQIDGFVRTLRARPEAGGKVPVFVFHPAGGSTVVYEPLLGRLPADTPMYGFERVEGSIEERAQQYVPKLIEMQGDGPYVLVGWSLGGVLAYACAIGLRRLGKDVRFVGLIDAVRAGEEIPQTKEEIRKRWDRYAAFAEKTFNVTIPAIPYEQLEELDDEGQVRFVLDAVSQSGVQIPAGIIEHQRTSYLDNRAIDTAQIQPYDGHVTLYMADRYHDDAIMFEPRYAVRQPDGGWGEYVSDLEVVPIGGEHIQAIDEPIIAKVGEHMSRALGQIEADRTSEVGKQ
UniProt P9WFT3, whole entry: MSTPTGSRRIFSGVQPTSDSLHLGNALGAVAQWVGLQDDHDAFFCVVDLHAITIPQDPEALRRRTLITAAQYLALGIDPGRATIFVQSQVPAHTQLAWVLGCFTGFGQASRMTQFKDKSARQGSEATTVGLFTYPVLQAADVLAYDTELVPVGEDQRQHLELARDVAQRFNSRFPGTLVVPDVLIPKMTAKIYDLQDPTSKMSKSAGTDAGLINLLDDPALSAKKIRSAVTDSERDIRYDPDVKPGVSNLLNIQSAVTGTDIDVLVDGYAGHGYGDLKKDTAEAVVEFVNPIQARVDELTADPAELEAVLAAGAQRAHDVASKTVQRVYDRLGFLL
UniProt P9WNZ1, whole entry: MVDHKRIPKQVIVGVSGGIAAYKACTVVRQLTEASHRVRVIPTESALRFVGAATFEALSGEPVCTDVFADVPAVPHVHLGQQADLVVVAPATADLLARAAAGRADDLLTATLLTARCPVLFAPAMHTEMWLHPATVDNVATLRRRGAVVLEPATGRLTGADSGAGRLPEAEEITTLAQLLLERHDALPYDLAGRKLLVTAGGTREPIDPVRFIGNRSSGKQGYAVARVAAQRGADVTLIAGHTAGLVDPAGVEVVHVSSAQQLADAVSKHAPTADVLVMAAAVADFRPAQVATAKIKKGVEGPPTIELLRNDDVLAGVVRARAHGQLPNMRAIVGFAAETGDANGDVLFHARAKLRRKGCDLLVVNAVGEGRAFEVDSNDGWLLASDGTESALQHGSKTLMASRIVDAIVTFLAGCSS
UniProt Q8IDJ8, 1-583: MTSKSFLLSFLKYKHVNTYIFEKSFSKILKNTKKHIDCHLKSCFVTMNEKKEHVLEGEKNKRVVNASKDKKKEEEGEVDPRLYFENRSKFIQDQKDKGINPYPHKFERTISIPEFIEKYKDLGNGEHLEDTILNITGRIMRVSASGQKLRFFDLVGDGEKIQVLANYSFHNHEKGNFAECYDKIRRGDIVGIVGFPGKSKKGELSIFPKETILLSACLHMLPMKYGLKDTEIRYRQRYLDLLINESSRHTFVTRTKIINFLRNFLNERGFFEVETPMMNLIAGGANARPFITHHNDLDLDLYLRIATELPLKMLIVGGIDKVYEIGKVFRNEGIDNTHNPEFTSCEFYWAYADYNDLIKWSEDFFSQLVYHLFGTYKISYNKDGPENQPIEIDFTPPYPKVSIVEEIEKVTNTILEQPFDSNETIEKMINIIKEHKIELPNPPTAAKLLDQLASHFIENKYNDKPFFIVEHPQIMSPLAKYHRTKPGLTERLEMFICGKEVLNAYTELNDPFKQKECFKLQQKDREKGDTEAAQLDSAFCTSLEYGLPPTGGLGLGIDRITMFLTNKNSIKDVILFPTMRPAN

A: 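Polyketide synthase Pks13, Mycobacterium tuberculosis (UniProt I6X8D2). Enzyme assay of the thioesterase domain of polyketide synthase 13; the read-out is not stated. Tested at 30 µM. The record gives no direction; the compounds picked for IC50 retests had high values, so higher reads as stronger inhibition. Size under these conditions: about 67,000 compounds, about 300 of them at 50% or above in at least one test.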
B: 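Tryptophan-tRNA ligase, Mycobacterium tuberculosis (UniProt P9WFT3). Enzyme assay of tryptophanyl-tRNA synthetase; the read-out is not stated. Concentration: 10 µM. Direction is not recorded; retested compounds ran higher, which suggests that high means inhibition. About 65,000 compounds were tested under these conditions; 0.098% (about 64) showed 50% or more at least once.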
C: 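Coenzyme A biosynthesis protein CoaBC, Mycobacterium tuberculosis (UniProt P9WNZ1). Enzyme assay of CoaBC with a phosphate dye (Biomol Green) read at 650 nm. Concentration: 30 µM. Higher reads as stronger inhibition, judged from the few compounds that gave an IC50. Most strong results did not repeat in a second test. Of about 67,000 compounds tested this way, about 40 (0.06%) reached 50% or more in at least one test.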
D: 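Enzyme assay of the cytosolic lysyl-tRNA synthetase in 384-well plates, read by luminescence. Target: Lysine-tRNA ligase, Plasmodium falciparum 3D7 (UniProt Q8IDJ8). Tested at 30 µM. Direction is inferred from only a few compounds that gave an IC50; most scored high, so higher reads as stronger inhibition. About 69,000 compounds were tested under these conditions; 0.071% (about 49) showed 50% or more at least once.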

Each number is a percent effect as filed. How 0% and 100% were set is not recorded. Most values in the screen are low, and negative values occur. This is an unselected part of the compounds tested.

COc1cc(CN2CCCC2c2cccc(F)c2)cc(OC)c1OC (configuration not stated) gave A: -12.57%; B: 0.9331%; C: -1.09%; D: 5.102%.
CC1CCN(S(=O)(=O)NC2CCCCNC2=O)CC1 (configuration not stated) gave A: -5.742%; B: -0.6053%; C: 1.21%; D: 5.31%.
CCc1ccc(C(=O)N2CCC3(CCC(=O)N(CCN(C)C)C3)CC2)[nH]1 gave A: 1.07%; B: -7.339%; C: -4.959%; D: 12.1%.
O=C(c1cnc(NCc2sccc2Br)c(Cl)c1)N1CCCCC1 gave A: 10.12%; B: -0.6849%; C: -0.9615%; D: 9.407%.
Cc1nc(Cc2ccc(F)cc2)cc(C2COCCN2)n1 (configuration not stated) gave A: 20.99%; B: -4.354%; C: -29.1%; D: 1.967%.
CCS(=O)(=O)N(C)CCCNC(=O)c1cc(Cl)cc2cccnc12 gave A: -8.659%; B: 4.022%; C: 2.532%; D: 8.455%.
CN(Cc1cccnc1)CC1CCOc2ccccc2C1 (configuration not stated) gave A: -37.09%; B: 1.156%; C: 3.478%; D: 2.423%.
CC(Nc1cccc(Oc2ccc(C#N)cn2)c1)C(=O)NC1CC1 (configuration not stated) gave A: -10.8%; B: 2.081%; C: -1.446%; D: 2.695%.
COc1ccc(Br)cc1S(=O)(=O)N(C)Cc1ccc(N(C)C)cc1 gave A: -8.579%; B: -1.125%; C: 4.713%; D: -0.2684%.
Cc1ncc(CN(Cc2ccccn2)Cc2ccccc2Cl)n1C gave A: 10.49%; B: 0.4755%; C: 10.21%; D: 4.344%.
COCCO[C@H]1CCN(C(=O)c2cnccn2)[C@H]1Cc1ccncc1 gave B: 2.654%; C: -0.1236%; D: -1.481%.
O=C(Nc1cccc(F)c1)C1CCCN1c1nccs1 (configuration not stated) gave A: -12.21%; B: 15.11%; C: 6.579%; D: 0.1138%.
CC(C)C(CNC(=O)CCn1cncn1)N1CCc2ccccc2C1 (configuration not stated) gave A: -8.489%; B: -3.128%; C: -5.368%; D: 1.581%.
O=C(CCn1cncn1)NCCOc1cccc(Cl)c1 gave A: 33.54%; B: 0.3028%; C: 3.883%; D: -2.596%.
CN(C)C(=O)N1CCc2c(COCC3CC3)cncc2C1 gave A: -9.16%; B: 1.399%; C: 2.538%; D: -5.573%.
Cc1ccc(C)c(CN2C[C@H]3CC[C@@H]2CN(C(=O)c2cccnc2)C3)c1 gave A: 15.42%; B: -0.942%; C: 5.428%; D: -2.169%.
CNC(=O)c1ccc(OC)c(NCc2noc(-c3ccsc3)n2)c1 gave A: -6.069%; B: -1.488%; C: 0%; D: 4.08%.
Cc1ccc(S(N)(=O)=O)cc1C(=O)NCC1Cc2ccccc2O1 (configuration not stated) gave A: -0.9297%; B: -0.3915%; C: 2.689%; D: 3.329%.
CCOC(=O)C(C)Nc1ccc(CCN2CCOCC2)cc1 (configuration not stated) gave A: -25.54%; B: 2.295%; C: 3.639%; D: -3.339%.
CCN1CC2(CC1=O)CN(C(=O)C(C)C)CCN(S(C)(=O)=O)C2 (configuration not stated) gave A: 22.14%; B: 8.043%; D: -3.261%.
CC(C)N(CCCNC(=O)C1CCOCC1)S(C)(=O)=O gave A: -23.95%; B: -0.2987%; C: 0.8872%; D: 4.468%.
CCOC(=O)CNC(=O)c1cccnc1Sc1cc(OC)ccc1OC gave A: 7.345%; C: 1.214%; D: 0.8479%.
OCC1CCCCN1Cc1nc(Cc2ccccc2)no1 (configuration not stated) gave A: -3.334%; B: -3.838%; C: 0.1965%; D: 6.404%.
c1ccc(-c2ncc(CNC3CCc4ncnn4C3)cn2)cc1 (configuration not stated) gave A: -6.247%; B: 0.8772%; C: 7.572%; D: 3%.
CC(C)(O)c1cn(C[C@H]2C[C@@H]3CCN2C[C@@H]3C(=O)N2CCOCC2)nn1 gave A: -0.5596%; B: 2.504%; C: 1.104%; D: 1.841%.
O=C(c1ccoc1)N1CCn2nc(CN3CCSCC3)cc2C1 gave A: 24.37%; B: 11.54%; C: -8.065%; D: -3.829%.
CCN1CCN(C(C)CNC(=O)Nc2cnn(CC)c2)CC1 (configuration not stated) gave A: 1.599%; B: -3.553%; C: 2.362%; D: -0.4867%.
CCS(=O)(=O)N1CCN(CC2CC2)c2ncccc2C1 gave A: 1.696%; C: 1.951%; D: 4.655%.

The values are deposited in ChEMBL (CHEMBL3988442, “University of Dundee, Small-Polar-MMV Screening Library” (2021)).